From paper PMC2679207, “GLS-1, a Novel P Granule Component, Modulates a Network of Conserved RNA Regulators to Influence Germ Cell Fate Decisions” (PLoS Genetics, 2009)
No constants are given. Whether binding was seen depends on the method and setting. Some results given as binding are weak or reduced against the parent protein; the word gives no strength. Sequences can lack the tags named with a protein.

What was measured:
Assay in all cases: two-hybrid; yeast; protein pairs fused to the LexA DNA binding domain and the Gal4 transcriptional activation domain; beta-galactosidase activities in arbitrary units
[1] = biological target: T1, GLD-3S (yeast two-hybrid fusion) (C. elegans) (UniProt Q95ZK7)
T1 sequence: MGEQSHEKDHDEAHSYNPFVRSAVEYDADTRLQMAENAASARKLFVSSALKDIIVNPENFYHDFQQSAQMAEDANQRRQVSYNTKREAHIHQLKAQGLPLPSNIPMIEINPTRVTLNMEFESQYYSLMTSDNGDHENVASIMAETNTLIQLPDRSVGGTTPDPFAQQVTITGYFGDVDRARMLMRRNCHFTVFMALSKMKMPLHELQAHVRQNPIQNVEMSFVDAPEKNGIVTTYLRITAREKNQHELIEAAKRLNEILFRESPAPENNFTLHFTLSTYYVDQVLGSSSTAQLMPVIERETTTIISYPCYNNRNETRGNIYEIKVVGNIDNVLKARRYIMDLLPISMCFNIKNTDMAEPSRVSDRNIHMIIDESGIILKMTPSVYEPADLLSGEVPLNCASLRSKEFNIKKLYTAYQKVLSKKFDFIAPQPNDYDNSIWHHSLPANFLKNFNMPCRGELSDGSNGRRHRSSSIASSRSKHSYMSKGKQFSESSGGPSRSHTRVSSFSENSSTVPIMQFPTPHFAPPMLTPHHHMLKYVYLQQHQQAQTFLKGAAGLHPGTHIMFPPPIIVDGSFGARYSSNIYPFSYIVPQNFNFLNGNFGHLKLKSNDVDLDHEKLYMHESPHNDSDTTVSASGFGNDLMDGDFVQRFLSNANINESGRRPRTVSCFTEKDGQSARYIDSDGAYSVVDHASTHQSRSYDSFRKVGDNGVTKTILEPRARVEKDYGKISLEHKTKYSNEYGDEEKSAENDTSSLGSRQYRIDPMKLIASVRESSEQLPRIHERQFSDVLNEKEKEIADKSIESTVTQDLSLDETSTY

[2] = biological target: T2, FBF-1 (yeast two-hybrid fusion) (C. elegans) (UniProt Q9N5M6)
T2 sequence: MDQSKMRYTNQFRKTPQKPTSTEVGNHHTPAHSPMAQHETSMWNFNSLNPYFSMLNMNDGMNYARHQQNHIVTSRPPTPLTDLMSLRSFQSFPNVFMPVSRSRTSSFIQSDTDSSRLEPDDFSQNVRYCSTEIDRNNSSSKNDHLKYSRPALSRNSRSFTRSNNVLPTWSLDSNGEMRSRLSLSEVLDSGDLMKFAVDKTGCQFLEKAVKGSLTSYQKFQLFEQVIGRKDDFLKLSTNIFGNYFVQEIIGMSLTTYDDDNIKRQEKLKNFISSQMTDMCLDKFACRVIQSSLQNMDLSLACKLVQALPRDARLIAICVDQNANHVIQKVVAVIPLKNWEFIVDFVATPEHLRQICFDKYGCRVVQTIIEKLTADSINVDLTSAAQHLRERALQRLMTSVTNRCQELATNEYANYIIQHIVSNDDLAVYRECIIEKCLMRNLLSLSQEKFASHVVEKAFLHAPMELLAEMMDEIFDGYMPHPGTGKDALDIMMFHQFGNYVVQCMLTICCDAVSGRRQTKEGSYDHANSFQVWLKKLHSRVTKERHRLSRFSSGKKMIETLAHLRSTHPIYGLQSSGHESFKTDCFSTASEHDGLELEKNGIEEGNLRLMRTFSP

[3] = biological target: T3, FBF-2 (yeast two-hybrid fusion) (C. elegans) (UniProt Q09312)
T3 sequence: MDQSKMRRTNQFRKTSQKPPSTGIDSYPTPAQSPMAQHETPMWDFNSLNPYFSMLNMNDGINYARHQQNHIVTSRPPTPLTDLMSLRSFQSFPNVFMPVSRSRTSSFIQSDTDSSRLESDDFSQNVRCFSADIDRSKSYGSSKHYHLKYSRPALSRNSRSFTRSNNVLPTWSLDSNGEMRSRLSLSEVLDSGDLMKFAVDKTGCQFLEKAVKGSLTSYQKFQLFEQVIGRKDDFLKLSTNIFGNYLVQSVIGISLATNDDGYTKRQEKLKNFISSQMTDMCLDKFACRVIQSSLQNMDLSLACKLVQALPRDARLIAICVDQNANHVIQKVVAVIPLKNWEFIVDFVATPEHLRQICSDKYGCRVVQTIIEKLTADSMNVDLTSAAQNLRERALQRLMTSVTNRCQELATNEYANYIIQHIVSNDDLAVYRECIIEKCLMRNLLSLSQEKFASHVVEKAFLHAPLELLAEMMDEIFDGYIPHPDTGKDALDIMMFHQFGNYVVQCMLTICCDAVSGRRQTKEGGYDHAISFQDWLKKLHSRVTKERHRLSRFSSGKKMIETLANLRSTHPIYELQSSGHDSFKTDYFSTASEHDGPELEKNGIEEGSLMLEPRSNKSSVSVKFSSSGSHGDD

- binding [1]: binds
- binding [2]: no binding
- binding [3]: no binding
B1: GLS-1 (yeast two-hybrid fusion) (protein, UniProt Q8I4M5 1-1052)
chain: MRCLISYLFHSFLIFLKFIRSDVTALTLQEKRKKSRLTGILMKSMANKKNHQQKKSTDGSTMNGNNATATAAATTQNSSQIGQNSNSSHSVTNDNTSSNNASTSTSSITSTTTTTTTVPSSQQSQSQNQYSHQRLSSTSSTSQQTGISKFPAKKAGHNELEKTSNTANSQSGAFKGTTNKDRPKEKEKNTHSGNRQSQVNHNHHHSNHVSGNQQNRKNKNRDHSNQSYRGGYTHNHNNYHSLENAKSSGFLSNSSLSSAGQISASSAPPVSTTPTAIPIFQESKIVQTDPPVEEAKKKKEKPKIKRDEEPMPYKSTDPKNMDSVMAFKEHDEWDKVEFMCELVSFLSPTDLRLLGNCIEGSVRCYNNQMRPVEKTSNCSDPTAGLPQFVCSPPPPPQQVYYFPGIADAALYQTRNAVNSVFVQQHPPGLPPLLGGMQNIMYPPDANFHHSTSCTTPSSSVSVANKDVNNVPVVLSSSVNGISNNIPSDRQQLDSKPNTARGSSGNINQSNTTSPEPEPGSNHISTTAANPAHPTSVTVPQSVPPVPQEPELFLKSVLDLTSYIYTLMAVCSSTNRKSAAKISDYVQNVILREKSQILERIPDELDKITVLQEIGKIVAAMTHHPAITLDDKMKYAALRDGLRAQIETLFRQYYTTQKQLEQSNLVVPSSQAVGDENDTDSDHESEEEFEPLSGVMGSRFESNPVQPSPSVPGTFFIIRFIGRQIEKNDNLFSLEIHWSDGDRTFAQRSRDQLKALQHRLLDEFGQQRSEKYLHQGCTTSYSSFDDDNKKLSASTSTMETFAPNGERIVPRLARDATPAQYVQYINELSDLPARMMLSAVICEEFNGTRAKTEDLLQETREASDGLIYSRWKNPRAKSPVRYFKRNATGSIDPIELPVNMQPFLYSNIPQTQVQTLFPSCSNCGGPHAPKHCEKQTLLSKKGDHRTRSDGEGSQQNGGTSSSNSYAPIHANLPHAVYIENPQAMLGSNHFNHHQQQHIIQNTIFHNGGQFRANGTYEPQIPIAYYHAQGTVQNSNNTGGVNGNSGGGNQNSNF
